Reference: article PMC6148051
No constants are given. Whether binding was seen depends on the method and setting. In cells and extracts the contact can be indirect. Some binding calls cover weakened binding; strength is not graded here.

Key:
GFP-tagged SIRT6 = GFP-tagged SIRT6 (UniProt Q8N6T7); experiment: co-IP; HCT116 cells co-transfected with GFP-SIRT6 and FLAG-p53, with or without 0.2 mM palmitic acid for 18 h; IP with anti-FLAG or anti-GFP, blot with anti-GFP or anti-FLAG
[1] = target: SIRT6 (endogenous) (human (endogenous in HCT116)) (UniProt Q8N6T7); experiment: co-IP; endogenous proteins of HCT116 cells, with or without 0.2 mM palmitic acid for 18 h; IP with anti-SIRT6, blot with anti-p53 or anti-RNAP II

With “FLAG-tagged p53 (from UniProt P04637 1-393)” the binding (GFP-tagged SIRT6) was “binds”.
In the case of “p53 (endogenous) (from UniProt P04637 1-393)”, the binding [1] is reported as “binds”.
